In PMC7819943, “Rice protein-binding microarrays: a tool to detect cis-acting elements near promoter regions in rice”:
The other results are listed elsewhere or left out.

By UniProt entry, the sequences of proteins in these tests, tags left out.
UniProt Q0JBA9, entry or part of it: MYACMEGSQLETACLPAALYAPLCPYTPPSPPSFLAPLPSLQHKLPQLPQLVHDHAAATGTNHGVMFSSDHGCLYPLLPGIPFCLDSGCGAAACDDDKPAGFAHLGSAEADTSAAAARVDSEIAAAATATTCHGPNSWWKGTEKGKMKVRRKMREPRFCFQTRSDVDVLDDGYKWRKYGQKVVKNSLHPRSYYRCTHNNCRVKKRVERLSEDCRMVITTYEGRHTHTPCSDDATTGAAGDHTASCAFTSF

What follows are sequences tested against OsWRKY34 (Oryza sativa, UniProt Q0JBA9 1-250) (assay: protein-binding microarray (RPBM); PBS, 2% BSA, 51.3 ng/ul salmon testes DNA, 50 uM zinc acetate, 200 nM TF, 25 C, 1 h; high values mean tight binding). Conditions: protein: recombinant; tags: N-terminal polyhistidine and DsRed monomer fusion (pET32a); label: CyDye5-dUTP incorporated in the synthesized complementary strand; 3' TTTTT single-stranded linker to array surface; dsDNA, one strand shown.
Procedure, shortened: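 The binding signal is fluorescence intensity per feature, in arbitrary units, read on an Axon 4000B scanner. Polyhistidine- and DsRed-tagged transcription factors (N-terminal fusions) from E. coli BL21-CodonPlus were purified on Ni–NTA and applied at 200 nM for 1 h at 25 °C to a double-stranded, BSA-blocked custom Agilent array in buffer with 50 µM zinc acetate.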
With “GTTTGTTGCAGTTTGGTGTGTATGTTTGTTGCACTTTGATCGGAGTCACCTAGTGCAG” the binding signal was 9920 fluorescence intensity (a.u.).
With “CTTGTGGATTTCGTTCGAGTTCTTGTGGTTTTGGATCGGGCGGAGTCACCTAGTGCAG” the binding signal was 9590 fluorescence intensity (a.u.).
In the case of “GCCCACCGTCGCTCCGCTCGCCACCCGCCACCTGCTGCCTCGGAGTCACCTAGTGCAG”, the binding signal is reported as 11900 fluorescence intensity (a.u.).
With “ACCCGCGGTGACGCGCTCCTTGACTCGGCGCCCCTGCTCGCGGAGTCACCTAGTGCAG” the binding signal was 8520 fluorescence intensity (a.u.).
In the case of “GTTGTCTAGTGCTTGCTATTCTTCTACTAGTAGTATTATACGGAGTCACCTAGTGCAG”, the binding signal is reported as 9570 fluorescence intensity (a.u.).
“CTCCACCTCCACTGCCGCCCCGCCGCCCAATCCACCACCACGGAGTCACCTAGTGCAG” was tested, and the binding signal was 8370 fluorescence intensity (a.u.).
For “TTTCCCAGCATGTTCTGTGAAGTTTCCTTAGTCCATCTCCCGGAGTCACCTAGTGCAG”, the binding signal was 8960 fluorescence intensity (a.u.).
In the case of “GGGAGGGGTGGCTCGGCGGCGGTGCGGGGTGGCGGTGCTCCGGAGTCACCTAGTGCAG”, the binding signal is reported as 18700 fluorescence intensity (a.u.).
With “GATGATTGGTCCAAGTCATGGCTTCCGCTTTCCCTTTTGTCGGAGTCACCTAGTGCAG” the binding signal was 10600 fluorescence intensity (a.u.).
With “GAACCAGTATCCCGAACTTGTACACCACGCTTTCTTGGTCCGGAGTCACCTAGTGCAG” the binding signal was 9530 fluorescence intensity (a.u.).
“AACCCTTTTATAGCACTTTTTTTTATCGGACATAACAAAACGGAGTCACCTAGTGCAG” was tested, and the binding signal was 9520 fluorescence intensity (a.u.).
In the case of “TCTTGGTCCTCTTATCCATATACTCTCTCCGTAAAAAAAACGGAGTCACCTAGTGCAG”, the binding signal is reported as 8310 fluorescence intensity (a.u.).
In the case of “TACCGGATGATTTGTGTTCCTTTGCTGACTGTAGTGACGTCGGAGTCACCTAGTGCAG”, the binding signal is reported as 11300 fluorescence intensity (a.u.).
“CGATGTTGACTTAAAGTCAGTCCTTTTAACTGATTTTCGGCGGAGTCACCTAGTGCAG” was tested, and the binding signal was 11200 fluorescence intensity (a.u.).
For “GTAGATCACGGCTTACTTTTCTTTTCTCCCAGTTTGATCACGGAGTCACCTAGTGCAG”, the binding signal was 8780 fluorescence intensity (a.u.).
In the case of “TTGCTATTCTCACCCATTACACTTGCTTATCCACAGTCATCGGAGTCACCTAGTGCAG”, the binding signal is reported as 9240 fluorescence intensity (a.u.).
In the case of “CCCTCGCAGCACCAACACCGCCGAGATCTCTCTTCTTCTTCGGAGTCACCTAGTGCAG”, the binding signal is reported as 10400 fluorescence intensity (a.u.).
“GGTCGCTCGCCGTTCCTACTCCGAGTCCGAGTCAGTCCCTCGGAGTCACCTAGTGCAG” was tested, and the binding signal was 8380 fluorescence intensity (a.u.).
In the case of “CATCTTAATCTCATCATTAATTCCCTTGTGTAAACTCCTACGGAGTCACCTAGTGCAG”, the binding signal is reported as 8500 fluorescence intensity (a.u.).
“TAGCCTAATCTTACCATTAGTTGTTGTCCTTGGTTGAATCCGGAGTCACCTAGTGCAG” was tested, and the binding signal was 10100 fluorescence intensity (a.u.).
With “TTATATGTCCATTGCATCTGATAACACTAGCCATGTATGCCGGAGTCACCTAGTGCAG” the binding signal was 10400 fluorescence intensity (a.u.).
For “AGTACACCACTCCATTTCTCTCTCTTTCTCTCGCTTTCTTCGGAGTCACCTAGTGCAG”, the binding signal was 12500 fluorescence intensity (a.u.).
“TTTTTTCTCACATGTTTGACCATTCGTCTTATTCAAAAAACGGAGTCACCTAGTGCAG” was tested, and the binding signal was 8550 fluorescence intensity (a.u.).
With “AGCCCAACTTGCTATCTGCCATTTTTGCCAACTTGCTACCCGGAGTCACCTAGTGCAG” the binding signal was 10800 fluorescence intensity (a.u.).
With “TGTCTTCTTTCTTTTCTGCTCTTTTCCCCGCGGCCATCCCCGGAGTCACCTAGTGCAG” the binding signal was 9870 fluorescence intensity (a.u.).
“AGCTACCTCATTTATTAATACCTTTTTCTTTTCTTTGTTGCGGAGTCACCTAGTGCAG” was tested, and the binding signal was 9640 fluorescence intensity (a.u.).
“ATCCATACTGTTTTCAACCCTTAGGCTATATTCGATTAATCGGAGTCACCTAGTGCAG” was tested, and the binding signal was 8990 fluorescence intensity (a.u.).
For “TCACGCTTGATTGTTCTATTAGGCCTGTTGTTATACAGATCGGAGTCACCTAGTGCAG”, the binding signal was 8150 fluorescence intensity (a.u.).
With “GAAAAGATCGCCCCTTATCCGGAAAACCCGCTCTCACACCCGGAGTCACCTAGTGCAG” the binding signal was 8760 fluorescence intensity (a.u.).
In the case of “GATTCATACAATTGTATGGTGTTAACATGGCGATTTTTTGCGGAGTCACCTAGTGCAG”, the binding signal is reported as 9120 fluorescence intensity (a.u.).
For “TCTCCTAGCCAATTATACGTTTTTTGTGTGTCCTGTGACACGGAGTCACCTAGTGCAG”, the binding signal was 8540 fluorescence intensity (a.u.).
For “TTCTTCTTGTCTCATCTGCACCATTGACAAGCAATATCATCGGAGTCACCTAGTGCAG”, the binding signal was 8580 fluorescence intensity (a.u.).
In the case of “CAGGTCCATATTTCACCAATTCATTCATCAGCTGACAATCCGGAGTCACCTAGTGCAG”, the binding signal is reported as 9890 fluorescence intensity (a.u.).
With “CTGCTGCACTTCTCTCTCTCTCCTCGTCCTACAGGCTACACGGAGTCACCTAGTGCAG” the binding signal was 9580 fluorescence intensity (a.u.).
With “GGCGGCGACCTGATCTCTCTGCGTTTGTGTGCTCTGTTTCCGGAGTCACCTAGTGCAG” the binding signal was 11800 fluorescence intensity (a.u.).
In the case of “CTAGACTGACTCGGTTTTTGTCAAAGTGTTCTGTAATTGCCGGAGTCACCTAGTGCAG”, the binding signal is reported as 8780 fluorescence intensity (a.u.).
“CTCAACCATCGCCTCGGCCGCGCTGCCACGCCACTATAATCGGAGTCACCTAGTGCAG” was tested, and the binding signal was 9180 fluorescence intensity (a.u.).
With “GACGTATCATAGTCTCTGTTTAGATTTCTAGTACTATGATCGGAGTCACCTAGTGCAG” the binding signal was 9340 fluorescence intensity (a.u.).
With “ACGGAAATATTCTACGCACGAAAGCCGCACACGTGTTTCCCGGAGTCACCTAGTGCAG” the binding signal was 8170 fluorescence intensity (a.u.).
With “CACACCTCGCCTCCTCCTCGGCTTGGATCTCGCCGCATCACGGAGTCACCTAGTGCAG” the binding signal was 8210 fluorescence intensity (a.u.).
“ATCGGCGCCGTCGACCGCGACCACCCTGCCGCCGAGCGCCCGGAGTCACCTAGTGCAG” was tested, and the binding signal was 10300 fluorescence intensity (a.u.).
With “GCTATTCTCCCAGTCCCACGCCGCACCGCCCACACGGCGCCGGAGTCACCTAGTGCAG” the binding signal was 9500 fluorescence intensity (a.u.).
